# Experiments:
# [1] = Intracellular metabolite concentrations in E. coli sampled from fermentors, LC-ESI-MS/MS; format: cell-based; details: for intracellular level: MCM343, after 100 μM IPTG; for intracellular concentration during the production period: MCM400 (Streptomyces MVK), 4×50 μM IPTG
# [2] = format: cell-based, E. coli; details: strain with MVK plus PMK plus MDD; fed 5.8 mM MVA, sampled 2 hours post MVA addition
smiles,measurement,setting,value
"C=C(C)CCOP(=O)(O)OP(=O)(O)O [IPP, isopentenyl diphosphate]",intracellular level,[1],dropped below the detection limit
"C[C@@](O)(CCOP(=O)(O)OP(=O)(O)O)CC(=O)O [MVPP, mevalonate-5-diphosphate]",intracellular level,[1],No MVP or MVPP were detected
same,intracellular concentration during the production period,[1],below the detection limit
"C[C@@](O)(CCO)CC(=O)O [MVA, mevalonic acid]",MVA consumed,[2],2.9 mM
"C[C@@](O)(CCOP(=O)(O)O)CC(=O)O [MVP, mevalonate-5-phosphate]",intracellular level,[1],No MVP or MVPP were detected
same,intracellular concentration during the production period,[1],below the detection limit

# From US20100184178A1, “INCREASED ISOPRENE PRODUCTION USING MEVALONATE KINASE AND ISOPRENE SYNTHASE” (priority 2008, published 2010)
